{"source": "patent US9585382B2", "about": "“Composition comprising a pesticide and an acetal solvent” (priority 2011, dated 2017)", "test": "Solubility in water at 20° C.", "method": "The solubility of benzaldehyde dimethyl acetal or p-anisaldehyde dimethyl acetal in water at 20° C. was analyzed.", "note": "Some entries share one result that the patent states for a list of compounds."}
{"smiles": "COC(OC)c1ccccc1", "note": "[Benzaldehyde dimethyl acetal, reference compound]", "values": [{"measurement": "solubility in water", "value": "≤ 0.1", "unit": "% by weight"}]}
